Results as given in PubChem BioAssay AID624291 (National Center for Advancing Translational Sciences (NCATS), 2012).
Out of some 350,000 compounds screened, about 220 (0.063%) were called active. Inconclusive means that the source gave no clear call. Such entries were picked first, then a sample of the others. The call rests on the fitted dose curve; in most records, active means well fitted activation curve with a large enough effect; inconclusive means small, poorly fitted or top-dose-only effect; inactive means no such curve, though single readings can be large or run the other way. A potency beside an inconclusive call is a rough fit, not a confirmed value.

Assay: qHTS for Activators of Integrin-Mediated Alleviation for Muscular Dystrophy; further: nearly all actives have a fitted effect of over 60% in size
Details: alpha7betagal myoblasts, beta-gal FDG fluorescence, 48 h; series mostly up to 38.3 µM
How it was run: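 Alpha7betagal+/- myoblasts (passage 13) were plated 16-24 hr, then exposed to compounds (1:260 dilution of DMSO stock) for 48 hours at 37C. After MPER lysis, β-galactosidase reporter activity was read as FDG fluorescence (ex 480/em 540) after 30 minutes.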
Potency means the concentration at half of the fitted maximal effect.

Potency, inactive:
O=C(NCCCNC(=O)c1cncc(O)c1)c1cncc(O)c1
O=C(C1=C[C@@H](C2CCCCC2)C[C@@H](OCc2ccc(CO)cc2)O1)N1CCN(Cc2ccccc2)CC1
COC(=O)C1=C(O)CSC1=Nc1ccc(C)cc1
COc1ccc(/C=C/C(=O)C2CC2)cc1COc1cccc(C)c1C
O=C(COC(=O)C1(c2ccccc2F)CCCC1)NC1CCS(=O)(=O)C1 (centres undefined)
COc1ccccc1N1CCN(S(=O)(=O)c2c(C)[nH]c(C)c2C(=O)N2CCCCC2)CC1
COc1cc(NC(=O)CSCC(=O)Nc2cccc(C(F)(F)F)c2)c(Cl)cc1Cl
CN1CCN(C(=O)CCN2C(=O)/C(=C\c3ccc(Cl)cc3)SC2=S)CC1
CCN(CC(=O)Nc1cccc(OC)c1)C(=O)c1ccco1
Cc1cc(C)c(S(=O)(=O)NCC23C=CC(O2)C2C(=O)N(c4ccccc4)C(=O)C23)c(C)c1 (centres undefined)
CCOc1ccc(-c2nc(N)ncc2Oc2ccc(OC)cc2)c(O)c1
Fc1ccc2[nH]c3c(N4CCN(c5ccccc5)CC4)ncnc3c2c1
OC(COc1cccc2ccccc12)CN1CCN(c2ccccc2)CC1 (centres undefined)
Cc1cccc(OCC(=O)Nc2ccc3c(c2)nc(CN2CCCCC2)n3C)c1
COc1ccc(CCn2c(=N)c(C(=O)NC3CCCC3)cc3c(=O)n4ccccc4nc32)cc1

Potency, inconclusive:
Cc1cc(C)c(C)c(S(=O)(=O)N2CCN(C)CC2)c1C 1.12 µM [activator, partial curve, poor fit]
O=C(Cn1cncn1)c1ccccc1 5.01 µM [activator, single point]
CN1C(=O)c2ccc(C(=O)Nc3cccnc3)cc2C1=O 5.01 µM [activator, single point]
O=C(O)C(Cc1ccc(O)cc1)N1C(=O)c2ccccc2C1=O (centres undefined) 5.01 µM [activator, full curve]
CCOc1ccc(N/C(=N/c2nc(C)cc(C)n2)NC(=O)CC)cc1 28.2 µM [activator, single point]
COc1ccc(NC(=O)NCc2cccnc2)cc1 4.47 µM [activator, single point]
Cc1cc(-c2nnc(SCC(=O)Nc3cccc(C)c3C)n2N)n[nH]1 12.6 µM [activator, partial curve, poor fit]
COc1ccc(N(CC(=O)Nc2ccccc2OC)S(=O)(=O)c2ccccc2)cc1Cl 10 µM [activator, partial curve, poor fit]
Cn1nc(C(=O)NC2CCCC2)c2ccccc2c1=O 5.01 µM [activator, single point]
Cc1ccc(NC(=O)COC(=O)[C@H](C)NC(N)=O)c(C)c1 3.55 µM [activator, full curve, poor fit]
Cc1ccn(-c2ccc(NC(=O)c3cccs3)cc2)n1 0.794 µM [activator, full curve, poor fit]
CCc1nnc(SCC(=O)Nc2ccccc2)nc1CC 4.47 µM [activator, partial curve, poor fit]
CC(=O)c1ccc(OCc2cc(C(=O)N(C)C3CCOC3)no2)cc1 (centres undefined) 28.2 µM [activator, single point]
O=CN1CCN(C(=O)CC(c2ccccc2)c2cc(Br)ccc2O)CC1 (centres undefined) 10 µM [activator, partial curve, poor fit]
CCc1nnc(N/N=C/c2c(F)cccc2Cl)n1N 2.82 µM [activator, single point]
O=C(NC1=NCCS1)c1ccc(Cl)c(S(=O)(=O)N2CCc3ccccc32)c1 3.98 µM [activator, single point]
CCOCCCNC(=O)c1ccc(N2CCCC2)c(NS(=O)(=O)c2ccc(C)cc2)c1 7.94 µM [activator, partial curve]
Cc1ccccc1OCC(=O)Nc1ccc2c(c1)OCCO2 0.355 µM [activator, partial curve, poor fit]
CSc1ccc(CN2CCN(C(=O)c3ccncc3)CC2)cc1 3.98 µM [activator, single point]
Cc1nccn1-c1ccc(C=O)cc1 20 µM [activator, partial curve, poor fit]
Cc1c(Cl)cccc1NC(=O)Nn1cnnc1 0.891 µM [activator, full curve, poor fit]
COc1ccccc1N1CCN(C(=O)CSc2ncnc3c2cnn3-c2ccc(C)c(C)c2)CC1 2 µM [activator, single point]
O=C1CN(C(=O)COC(=O)CCCOc2ccccc2)c2ccccc2N1 15.8 µM [activator, partial curve, poor fit]
COc1cc(NS(=O)(=O)c2ccc(NC(=S)NC(=O)c3ccc(Br)cc3)cc2)ncn1 20 µM [activator, single point]
O=c1c(-c2ccc(Cl)cc2)coc2c(CN3CCCCC3)c(O)ccc12 1.58 µM [activator, partial curve, poor fit]
Cc1c(C(=O)N2CCC(C)CC2)oc2ccc3c(c12)C(O)CC1(CCCCC1)O3 (centres undefined) 3.16 µM [activator, full curve, poor fit]
O=C(CSCc1ccc(C(=O)O)cc1)Nc1ccccc1 2.82 µM [activator, single point]
CC(=O)N1CCc2c(sc(NC(=O)Cc3ccc(F)cc3)c2C(N)=O)C1 0.501 µM [activator, full curve, poor fit]
CSc1ccc(C(=O)Nc2cc(S(=O)(=O)N3CCOCC3)ccc2N2CCOCC2)cc1[N+](=O)[O-] 28.2 µM [activator, single point]

As a short view, some entries already given:
Potency, inconclusive:
O=C(Cn1cncn1)c1ccccc1 5.01 µM [activator, single point]
CN1C(=O)c2ccc(C(=O)Nc3cccnc3)cc2C1=O 5.01 µM [activator, single point]
O=C(O)C(Cc1ccc(O)cc1)N1C(=O)c2ccccc2C1=O (centres undefined) 5.01 µM [activator, full curve]
